From publication PMC8133776 come the findings set out here.

No constants are given. Whether binding was seen depends on the method and setting. Binding seen in cells or lysates may run through a third protein. A yes stands for co-enrichment or nearness to the bait. Other partners may have been found.

Experiment [1] has as its target T1, BASU-Nup54 (Drosophila melanogaster) (UniProt Q9V6B9).
T1 sequence: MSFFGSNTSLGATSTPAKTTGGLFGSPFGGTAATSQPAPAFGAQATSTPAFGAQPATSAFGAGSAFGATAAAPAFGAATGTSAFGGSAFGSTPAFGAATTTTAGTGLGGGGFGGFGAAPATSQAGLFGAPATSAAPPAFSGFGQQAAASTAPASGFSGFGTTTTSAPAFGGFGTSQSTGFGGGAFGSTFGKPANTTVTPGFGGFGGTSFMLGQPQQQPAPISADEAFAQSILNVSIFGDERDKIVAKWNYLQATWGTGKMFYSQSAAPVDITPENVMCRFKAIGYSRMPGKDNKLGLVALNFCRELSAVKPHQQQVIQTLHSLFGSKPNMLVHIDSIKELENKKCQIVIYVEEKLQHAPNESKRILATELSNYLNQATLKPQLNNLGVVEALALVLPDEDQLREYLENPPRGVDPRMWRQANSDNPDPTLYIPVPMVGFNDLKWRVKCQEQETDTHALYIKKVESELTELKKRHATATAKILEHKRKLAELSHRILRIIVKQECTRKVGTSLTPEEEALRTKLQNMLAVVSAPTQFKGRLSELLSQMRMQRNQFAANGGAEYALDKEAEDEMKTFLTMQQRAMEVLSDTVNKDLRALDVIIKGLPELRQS
Briefly: proximity labelling; HA-BASU fusion expressed in OSCs, 200 uM biotin for 1 hr, streptavidin pulldown of biotinylated proteins, TMT quantitative mass spectrometry against HA-ZsGreen control.

Experiment [2] deals with T2, BASU-Nup58 (Drosophila melanogaster) (UniProt Q9VDV3).
T2 sequence: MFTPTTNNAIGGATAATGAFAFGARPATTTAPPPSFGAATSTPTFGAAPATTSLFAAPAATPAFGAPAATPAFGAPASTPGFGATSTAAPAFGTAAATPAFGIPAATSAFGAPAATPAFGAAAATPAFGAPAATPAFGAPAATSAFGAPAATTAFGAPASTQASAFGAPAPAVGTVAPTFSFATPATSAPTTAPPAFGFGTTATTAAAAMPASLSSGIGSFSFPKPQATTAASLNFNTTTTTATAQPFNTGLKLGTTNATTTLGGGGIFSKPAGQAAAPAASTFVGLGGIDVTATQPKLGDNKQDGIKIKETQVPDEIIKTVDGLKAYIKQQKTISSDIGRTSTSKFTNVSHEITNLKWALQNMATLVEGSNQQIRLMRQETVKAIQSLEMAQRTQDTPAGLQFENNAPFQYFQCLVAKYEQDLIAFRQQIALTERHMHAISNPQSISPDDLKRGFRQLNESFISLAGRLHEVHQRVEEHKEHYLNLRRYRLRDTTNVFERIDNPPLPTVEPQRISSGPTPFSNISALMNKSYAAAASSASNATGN
Described as above.

B1: Nup62 (protein, UniProt Q7JXF5 1-394)
chain: MVFQLPTTTAAPTGGATSSFSFGLSTGTPAAAPASGAATTAPATKTTFSFGTPAPTAGIGGGDADNSKAQAPPAFGFGLGSGTASAPLTLGTQAAANPASTTSATATGTSAAPPAFGGFTAQPAASVVPTIATSAPNTAATTTGLLGGSGLGAPKTTAAASTTLTAAPSAIASTQGAAPAPTLSTGGAFANLTTETKTTDSSAVSTASQLSYHQLEEHINKWTLEFEEQEKVFTEQATQINAWDKLLISNNGKIVELNDAVKKVKTDQQVLDQELEFIATQQKELEDSLGPLEKEFVNLPRVDMERSQTYLMVENLDTQLKQMSEDLKEIIDNLNEANKGQDTTDPIIQIGKILNAHMNSLQWIESQSTNISKKLEDIGKIQDSQKRDIFRAPF
With B1, the binding result in experiment [1] and in experiment [2] was “binds” each time.

B2: Nup58 (endogenous) (protein, UniProt Q9VDV3 1-546)
chain: MFTPTTNNAIGGATAATGAFAFGARPATTTAPPPSFGAATSTPTFGAAPATTSLFAAPAATPAFGAPAATPAFGAPASTPGFGATSTAAPAFGTAAATPAFGIPAATSAFGAPAATPAFGAAAATPAFGAPAATPAFGAPAATSAFGAPAATTAFGAPASTQASAFGAPAPAVGTVAPTFSFATPATSAPTTAPPAFGFGTTATTAAAAMPASLSSGIGSFSFPKPQATTAASLNFNTTTTTATAQPFNTGLKLGTTNATTTLGGGGIFSKPAGQAAAPAASTFVGLGGIDVTATQPKLGDNKQDGIKIKETQVPDEIIKTVDGLKAYIKQQKTISSDIGRTSTSKFTNVSHEITNLKWALQNMATLVEGSNQQIRLMRQETVKAIQSLEMAQRTQDTPAGLQFENNAPFQYFQCLVAKYEQDLIAFRQQIALTERHMHAISNPQSISPDDLKRGFRQLNESFISLAGRLHEVHQRVEEHKEHYLNLRRYRLRDTTNVFERIDNPPLPTVEPQRISSGPTPFSNISALMNKSYAAAASSASNATGN
For B2, the binding entry in experiment [1] is “binds”.

B3: Nup54 (endogenous) (protein, UniProt Q9V6B9 1-610)
chain: MSFFGSNTSLGATSTPAKTTGGLFGSPFGGTAATSQPAPAFGAQATSTPAFGAQPATSAFGAGSAFGATAAAPAFGAATGTSAFGGSAFGSTPAFGAATTTTAGTGLGGGGFGGFGAAPATSQAGLFGAPATSAAPPAFSGFGQQAAASTAPASGFSGFGTTTTSAPAFGGFGTSQSTGFGGGAFGSTFGKPANTTVTPGFGGFGGTSFMLGQPQQQPAPISADEAFAQSILNVSIFGDERDKIVAKWNYLQATWGTGKMFYSQSAAPVDITPENVMCRFKAIGYSRMPGKDNKLGLVALNFCRELSAVKPHQQQVIQTLHSLFGSKPNMLVHIDSIKELENKKCQIVIYVEEKLQHAPNESKRILATELSNYLNQATLKPQLNNLGVVEALALVLPDEDQLREYLENPPRGVDPRMWRQANSDNPDPTLYIPVPMVGFNDLKWRVKCQEQETDTHALYIKKVESELTELKKRHATATAKILEHKRKLAELSHRILRIIVKQECTRKVGTSLTPEEEALRTKLQNMLAVVSAPTQFKGRLSELLSQMRMQRNQFAANGGAEYALDKEAEDEMKTFLTMQQRAMEVLSDTVNKDLRALDVIIKGLPELRQS
As to B3, in experiment [2], the binding entry was “binds”.
